Results published in article PMC7324161.
Results are given in words; binding and its absence hold for the method and conditions named. Binding seen in cells or lysates may run through a third protein. Some entries that bind do so weakly or less than the wild type.

Sequences of proteins named here, by UniProt entry; tags and fusion partners are left off. A change or cut given only in a name is not applied to a line headed by its entry.
UniProt Q8N6T7: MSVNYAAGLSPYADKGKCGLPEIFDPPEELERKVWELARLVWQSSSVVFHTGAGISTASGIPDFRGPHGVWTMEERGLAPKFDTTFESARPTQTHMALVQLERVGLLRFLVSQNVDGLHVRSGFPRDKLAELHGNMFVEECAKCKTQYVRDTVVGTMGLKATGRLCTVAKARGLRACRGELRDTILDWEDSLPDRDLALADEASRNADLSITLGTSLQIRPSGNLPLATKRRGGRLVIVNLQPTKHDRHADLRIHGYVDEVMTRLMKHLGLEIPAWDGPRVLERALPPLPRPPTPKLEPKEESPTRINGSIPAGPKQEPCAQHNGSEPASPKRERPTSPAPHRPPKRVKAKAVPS

Molecular target: HA-SIRT6 (human) (UniProt Q8N6T7)
Assay: co-IP; HEK293 cells co-overexpressing HA-SIRT6 and FLAG-tagged SIRT6 (WT or mutants) or FLAG-SIRT3; anti-HA immunoprecipitates blotted for FLAG

Row | Substance | binding
1 | FLAG-SIRT6 (from UniProt Q8N6T7 1-355) | binds
2 | FLAG-SIRT6 K33R (from UniProt Q8N6T7 1-355) | binds
